Laboratory results: patent US20100029674A1, “Methods of Using Phosphoantigen for the Treatment of Cancer” (INNATE PHARMA, S.A., priority 2007, published 2010)
At least one compound was matched to its structure with a doubt left.

Tested on: human γ9δ2 T cells
Test: Combination of BrHPP and tyrosine kinase inhibitors on amplification of Vd2/Vg9 T cells in NOD SCID mice
Assay type: in vivo
Conditions: BrHPP 50 mg/kg i.p. day 0, IL-2 day 0 to 4, TKI from day 0 for 3 to 5 days; peritoneal lavage day 8

CCN(CC)CCNC(=O)c1c(C)[nH]c(/C=C2\C(=O)Nc3ccc(F)cc32)c1C [Sutent, sunitinib]
effect on γδ T cell proliferation (percentage of γ9δ2 T cells among total cells): does not impair
